# Results taken from PubChem BioAssay AID540303 (National Center for Advancing Translational Sciences (NCATS), 2011).
# The whole screen tested about 330,000 compounds, of which about 1,000 (0.3%) were called active. Inconclusive results, whose numbers are uncertain, are shown with a selection of clear calls. Calls come from the whole dose curve; as a rule, active = well fitted inhibition curve with a large enough effect; inconclusive = small, poorly fitted or top-dose-only effect; inactive = no such curve, though single readings can be large or run the other way; tested in mouse RAW 264.7 cells. Where the call is inconclusive, the potency comes from a doubtful curve fit.
# Assay: qHTS for Inhibitors of Cell Surface uPA Generation; note: nearly all actives have a fitted effect of over 55% in size
# Settings: cell surface uPA generation assay; series mostly up to 38.3 µM
# In short: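 Murine RAW 264.7 cells are treated for 24 h with compound up to 38.3 uM final. Cell ATP, measured by ATP-Lite, remains high if blocking the uPA cascade prevents LF from reaching the cytoplasm.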
# Potency is the fitted concentration of half-maximal effect.
row,Compound,Potency
1,CC1CCN(S(=O)(=O)c2nnc(NC(=O)c3ccccc3Br)s2)CC1,"inconclusive: 12.6 µM [inhibitor, single point]"
2,CSc1ccc(CNC(=O)Cc2ccc(NC(=O)C3=C(C)OCCS3)cc2)cc1,"inconclusive: 0.891 µM [inhibitor, partial curve, poor fit]"
3,CNC(=O)/C(=C\c1ccco1)NC(=O)c1ccco1,inactive
4,COc1c(-c2ccc(O)cc2)oc2cc(O)cc(O)c2c1=O,"inconclusive: 11.2 µM [inhibitor, single point]"
5,Cc1cc(C(=O)N2CCc3ccccc32)n(-c2ccccc2)n1,"inconclusive: 6.31 µM [inhibitor, partial curve]"
6,O=C1NC(=S)S/C1=C\c1ccc(SCc2ccco2)o1,"inconclusive: 10 µM [inhibitor, partial curve, poor fit]"
7,NC(=O)c1nc[nH]c1C(=O)Nc1cccc(C(F)(F)F)c1,"inconclusive: 3.55 µM [inhibitor, partial curve, poor fit]"
8,Cc1ccc(OCc2cc(C(=O)N3CCCCCCC3)no2)cc1C,inactive
9,COc1ccc(-c2ccc(OC)c([C@H]3[C@H]4C=CC[C@@H](C)[C@@H]4C(=O)N3Cc3ccccc3)c2)cc1C,inactive
10,Fc1ccccc1-c1nc(NCc2ccccc2)c2ccccc2n1,inactive
11,Cc1ccc(S(=O)(=O)NCCC(=O)NC2CCCCC2C)cc1 (centres undefined),"inconclusive: 1 µM [inhibitor, full curve, poor fit]"
12,Nc1nc(=S)c2[nH]cnc2[nH]1,active: 0.158 µM
13,CCn1cc(CN2CCC(C(=O)Nc3cccc(-c4cccc(Cl)c4)c3)CC2)c(C)n1,"inconclusive: 11.2 µM [inhibitor, single point]"
14,CC(C)CC(C(=O)NCc1ccccn1)N1C(=O)c2ccccc2C1=O (centres undefined),inactive
15,O=C(Nc1nsc(-c2ccccc2)n1)c1ccc(F)cc1,"inconclusive: 12.6 µM [inhibitor, single point]"
16,O=C(Nc1ccc(Cl)cc1)C1C2CCCCC21 (centres undefined),"inconclusive: 31.6 µM [inhibitor, single point]"
17,Cc1ccc([N+](=O)[O-])cc1NC(=O)c1ccc(C(C)(C)C)cc1,inactive
18,Cc1[nH]c2ccccc2c1C(O)CN1CCC2(CC1)OCCO2 (centres undefined),"inconclusive: 28.2 µM [inhibitor, single point]"
19,N/C(Cc1ccc(Cl)cc1)=N\OC(=O)c1ccc2ccccc2c1,inactive
20,COc1ccc(S(=O)(=O)NCc2ccncc2)cc1NC(=O)c1ccccc1F,inactive
21,C#CCN1Cc2ccccc2Oc2cc(Br)ccc2S1(=O)=O,"inconclusive: 12.6 µM [inhibitor, partial curve, poor fit]"
22,NC(=O)c1ccccc1NC(=O)/C=C/c1cccc(Cl)c1,inactive
23,O=C(c1ccc([N+](=O)[O-])o1)N1CCc2ccccc2C1,active: 7.08 µM

row,Compound,Potency
1,Cc1onc(-c2c(F)cccc2Cl)c1C(=O)Nc1cccc(S(=O)(=O)N2CCCCC2)c1,inactive
2,CC(OC(=O)CNS(=O)(=O)c1ccc(C#N)cc1)C(=O)Nc1ccc(Cl)cn1 (centres undefined),"inconclusive: 0.0112 µM [inhibitor, full curve, poor fit]"
3,CN1CCN(CCCN2c3ccccc3Sc3ccc(Cl)cc32)CC1,"inconclusive: 12.6 µM [inhibitor, single point]"
4,CNc1nc(C)nc(-c2ccccc2O)n1,"inconclusive: 3.55 µM [inhibitor, partial curve, poor fit]"
5,Cn1c(=S)[nH]c(=O)c2ncc(=O)[nH]c21,inactive
6,C/C(=N\Nc1cc(N2CCOCC2)ncn1)c1ccccc1,"inconclusive: 12.6 µM [inhibitor, single point]"
7,Cc1cccc(NC(=O)c2ccc3[nH]c(=O)c(=O)[nH]c3c2)n1,inactive
8,COc1ccc(NS(=O)(=O)c2ccc(Br)cc2)cn1,inactive
9,CC(C(=O)N(C)C)N1c2cccc3cccc(c23)S1(=O)=O (centres undefined),"inconclusive: 1.58 µM [inhibitor, single point]"
10,CCn1c(=NC(=O)CS(=O)(=O)c2ccc(C)cc2)sc2cccc(OC)c21,"inconclusive: 11.2 µM [inhibitor, single point]"
11,O=C(c1ccco1)N1CCc2[nH]nc(-c3ccccc3)c2C1,inactive
12,COc1cccc(-c2nn(-c3ccccc3)cc2CN(C)Cc2ccno2)c1,inactive
13,CCc1nc(SCC(=O)N2CCCC2)c2ccccc2n1,"inconclusive: 8.91 µM [inhibitor, single point]"
14,C=C1[C@@H](O)[C@H](CC(C)C)N(Cc2ccccc2Br)S1(=O)=O,"inconclusive: 5.01 µM [inhibitor, partial curve, poor fit]"
15,C=CCOC(=O)C1=C[C@@H](c2ccccc2)[C@H](CCCO)[C@@H](OCC)O1,"inconclusive: 12.6 µM [inhibitor, single point]"
16,CN(C)CCCN(C(=O)c1ccco1)c1nc(-c2ccc(Cl)cc2)cs1,"inconclusive: 28.2 µM [inhibitor, single point]"
17,COc1ccc(C(CNC(=O)c2cc(S(=O)(=O)N3CCN(c4ccccc4)CC3)ccc2Cl)N(C)C)cc1 (centres undefined),"inconclusive: 8.91 µM [inhibitor, single point]"
18,COc1ccc2[nH]c3c(c2c1)CCN1C(=O)C(CC(=O)NCC24CC5CC(CC(C5)C2)C4)C[C@H](C(=O)N2CCOCC2)[C@@]31CCC1CCCC1 (some centres undefined),"inconclusive: 28.2 µM [inhibitor, single point]"
19,COC(=O)c1cccc(S(=O)(=O)N(Cc2ccco2)Cc2cc3ccc(OC)cc3[nH]c2=O)c1,"inconclusive: 0.398 µM [inhibitor, partial curve, poor fit]"
20,COc1cc(O)c(C(=O)CC(=O)c2ccncc2)c(OC)c1,inactive
21,Cc1cc(C)c(OCC(O)CNC(C)(C)C)c(C)c1 (centres undefined),"inconclusive: 11.2 µM [inhibitor, partial curve, poor fit]"
22,CCCCCCN1C2=NCCCN2c2ccccc21,"inconclusive: 5.01 µM [inhibitor, single point]"
23,Cc1ccc(C(=O)N2[C@@H]3CN(C)C(=O)[C@@]2(C)[C@H]2C(=O)N(C)C(=O)[C@@H]32)cc1,inactive

row,Compound,Potency
1,CC(=O)Oc1ccc2c3c(c(=O)oc2c1C)CCCC3,inactive
2,CC(=O)c1c(C)[nH]c(C(=O)OCC(=O)Nc2cc(Cl)ccc2[N+](=O)[O-])c1C,"inconclusive: 31.6 µM [inhibitor, single point]"
3,O=C(CN1CCN(Cc2ccccc2)C1=O)NCc1cccs1,"inconclusive: 2 µM [inhibitor, single point]"
4,COCC(=O)Nc1ccc2c(c1)OCC(=O)N2Cc1ccc(C)cc1,"inconclusive: 25.1 µM [inhibitor, single point]"
5,CCC(=O)Oc1c(C(=O)CC)cc2c(C)cc(=O)oc2c1C,"inconclusive: 11.2 µM [inhibitor, single point]"
6,CC(C)c1ccc(OCC(=O)NC2CC(C)(C)NC(C)(C)C2)c(Br)c1,"inconclusive: 12.6 µM [inhibitor, partial curve, poor fit]"
7,C[C@@]12C(=O)Nc3ccc(F)cc3C(=O)N1[C@H]1c3cc(Cl)ccc3OC[C@@H]1[C@@H]2c1ccccc1,"inconclusive: 12.6 µM [inhibitor, single point]"
8,CC(Oc1ccccc1)C(=O)N1CCC2(CC1)Oc1ccc(F)cc1C(=O)C21CC(c2ccc(Cl)cc2)=NO1 (centres undefined),inactive
9,Cn1c(SCC(=O)NC(C)(C)C)nnc1-c1ccc(C(C)(C)C)cc1,"inconclusive: 12.6 µM [inhibitor, single point]"
10,CCOc1ccc(-c2cc(CCCC(=O)Nc3cccc(OC)c3)no2)cc1,"inconclusive: 7.94 µM [inhibitor, single point]"
11,COC(=O)C1CCC(=S)N1C(=O)c1ccccc1 (centres undefined),inactive
12,COc1ccc(OCC(=O)Nc2ccc(N3CCCCC3)cc2)cc1,"inconclusive: 1.58 µM [inhibitor, partial curve, poor fit]"
13,Cc1ccc(-n2sc3ccccc3c2=O)cc1S(=O)(=O)N1CCCCC1,"inconclusive: 12.6 µM [inhibitor, single point]"
14,CCOCCOC(=O)c1[nH]c2c(c1C)C(=O)CC(c1ccc(N(C)C)cc1)C2 (centres undefined),active: 12.6 µM
15,CC(C)(C)C(=O)/C(=C/c1ccc(Cl)cc1)n1cncn1,"inconclusive: 3.16 µM [inhibitor, single point]"
16,COC(=O)C(C)N1C(=O)S/C(=C/c2cc(C)n(-c3ccccn3)c2C)C1=O (centres undefined),"inconclusive: 3.98 µM [inhibitor, partial curve, poor fit]"
17,CC(C)(C)c1ccc(-c2n[nH]c(=S)n2/N=C/c2ccncc2)cc1,inactive
18,O=C(Nc1nnc(-c2ccco2)o1)c1ccc(S(=O)(=O)N2CCCC2)cc1,"inconclusive: 28.2 µM [inhibitor, single point]"
19,c1ccc(-[n+]2nc(Nc3cccc4ccccc34)sc2-c2c3ccccc3cc3ccccc23)cc1,"inconclusive: 20 µM [inhibitor, single point]"
20,Cn1nnnc1Sc1ncnc2scc(-c3ccc(C#N)cc3)c12,"inconclusive: 5.01 µM [inhibitor, single point]"
21,O=C(Cc1cccc(NC(=O)C2CCCN(C(=O)C3CC3)C2)c1)Nc1ccc(C(=O)N2CCCCC2)cc1 (centres undefined),inactive
22,O=C(Nc1ccc(SC(F)F)cc1)c1ccc(F)cc1,"inconclusive: 0.316 µM [inhibitor, full curve, poor fit]"
23,NC(=O)Cn1c(=O)n(-c2ccccc2)c(=O)c2oc3ccccc3c21,inactive

# Some of these compounds in order of formula weight, high to low.
row,Compound,Potency
16,CN(C)CCCN(C(=O)c1ccco1)c1nc(-c2ccc(Cl)cc2)cs1,"inconclusive: 28.2 µM [inhibitor, single point]"
13,Cc1ccc(-n2sc3ccccc3c2=O)cc1S(=O)(=O)N1CCCCC1,"inconclusive: 12.6 µM [inhibitor, single point]"
14,C=C1[C@@H](O)[C@H](CC(C)C)N(Cc2ccccc2Br)S1(=O)=O,"inconclusive: 5.01 µM [inhibitor, partial curve, poor fit]"
22,NC(=O)c1ccccc1NC(=O)/C=C/c1cccc(Cl)c1,inactive
